Source: publication PMC12024163, “Competitive Ligand-Induced Recruitment of Coactivators to Specific PPARα/δ/γ Ligand-Binding Domains Revealed by Dual-Emission FRET and X-Ray Diffraction of Cocrystals” (Antioxidants, 2025)
No constants are given. Whether binding was seen depends on the method and setting. Some results given as binding are weak or reduced against the parent protein; the word gives no strength. For some assays here: Sequences can lack the tags named with a protein.

Protein sequences, listed by entry. Tags and fused reporters are not part of them. Residues count along the entry.
UniProt P37231, residues 231-505: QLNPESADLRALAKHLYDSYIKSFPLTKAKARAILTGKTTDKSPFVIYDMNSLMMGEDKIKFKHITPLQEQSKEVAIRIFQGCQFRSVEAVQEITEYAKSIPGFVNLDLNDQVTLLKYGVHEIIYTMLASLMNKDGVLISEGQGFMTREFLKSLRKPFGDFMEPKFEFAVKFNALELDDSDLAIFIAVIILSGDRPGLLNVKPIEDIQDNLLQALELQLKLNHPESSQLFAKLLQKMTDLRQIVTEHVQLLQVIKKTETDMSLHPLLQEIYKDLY

Key:
[1] = biological target: T1, Human PPARα-LBD (amino acids 200–468), His-tag cleaved with thrombin (human) (UniProt Q07869); experiment: crystal structure; hanging-drop cocrystals of His-cleaved LBD (20 mg/mL) with NCoR2 peptide (2 mM), no ligand in the structure; 20 °C; both purified
T1 sequence: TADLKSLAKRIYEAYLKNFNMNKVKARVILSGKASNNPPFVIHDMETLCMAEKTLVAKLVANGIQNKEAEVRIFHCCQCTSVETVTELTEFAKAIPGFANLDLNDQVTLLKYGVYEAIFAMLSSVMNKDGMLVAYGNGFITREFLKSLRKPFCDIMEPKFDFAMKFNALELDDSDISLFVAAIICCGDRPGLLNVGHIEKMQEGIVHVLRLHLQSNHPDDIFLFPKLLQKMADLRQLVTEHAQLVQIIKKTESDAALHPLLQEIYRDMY

[2] = biological target: Human PPARγ-LBD (amino acids 203–477 in isoform 1), amino-terminal His-tagged (human) (UniProt P37231); experiment: FRET or BRET; single-emission TR-FRET (LANCE Ultra); His-tagged LBD (9.5 µL of 400 nM) with Tb cryptate anti-6×His antibody, biotin peptide (5 µL of 1 µM) with ULight-Streptavidin or FITC-Ahx peptide; buffer A (20 mM HEPES pH 7.4, 150 mM NaCl, 1 mM EDTA, 1 mM DTT, 0.005% Tween 20, 0.1% fatty acid-free BSA); room temperature, 2 h; without agonist (vehicle 1% DMSO); both purified

| Binder | binding [1] | binding [2] |
| --- | --- | --- |
| TNMGLEAIIRKALMGKYDQWEE [NCoR2 peptide used for cocrystallization (…)] | binds |  |
| PVSSMAGNTKNHPMLMNLLKDNPAQ (FITC-Ahx on the N-terminus (printed FITC-Ahx-PVSSM...)) [TRAP220 coactivator peptide, FITC-Ahx-labeled (AAs 631–655)] |  | no binding (condition: without pioglitazone) |
